# The other results are listed elsewhere or left out.
# By UniProt entry, the sequences of proteins in these tests, tags left out. Where a name states a change or a piece, a line headed by the entry shows the natural chain unless it says otherwise.
# UniProt O95985: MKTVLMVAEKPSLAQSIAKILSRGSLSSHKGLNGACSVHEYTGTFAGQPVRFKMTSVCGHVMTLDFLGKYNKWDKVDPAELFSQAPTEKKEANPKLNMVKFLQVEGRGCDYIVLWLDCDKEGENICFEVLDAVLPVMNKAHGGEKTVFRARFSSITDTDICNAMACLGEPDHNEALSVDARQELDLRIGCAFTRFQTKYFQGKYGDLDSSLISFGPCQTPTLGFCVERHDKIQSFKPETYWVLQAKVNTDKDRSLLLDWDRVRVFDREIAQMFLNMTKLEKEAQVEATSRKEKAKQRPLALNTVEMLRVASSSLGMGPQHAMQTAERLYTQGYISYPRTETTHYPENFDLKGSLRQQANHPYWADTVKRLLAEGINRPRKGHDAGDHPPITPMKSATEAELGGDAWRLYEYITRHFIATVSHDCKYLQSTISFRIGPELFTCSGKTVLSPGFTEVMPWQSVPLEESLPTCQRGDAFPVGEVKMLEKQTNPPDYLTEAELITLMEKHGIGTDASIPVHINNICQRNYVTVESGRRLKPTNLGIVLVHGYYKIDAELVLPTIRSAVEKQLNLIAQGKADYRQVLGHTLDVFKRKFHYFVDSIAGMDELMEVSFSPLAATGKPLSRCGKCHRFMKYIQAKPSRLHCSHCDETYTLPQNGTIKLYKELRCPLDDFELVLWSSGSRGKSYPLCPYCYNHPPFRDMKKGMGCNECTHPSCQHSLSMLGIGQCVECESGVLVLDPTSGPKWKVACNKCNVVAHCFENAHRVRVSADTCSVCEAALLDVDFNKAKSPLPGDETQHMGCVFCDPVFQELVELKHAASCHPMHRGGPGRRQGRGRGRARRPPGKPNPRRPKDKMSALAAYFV
# UniProt Q9HD45: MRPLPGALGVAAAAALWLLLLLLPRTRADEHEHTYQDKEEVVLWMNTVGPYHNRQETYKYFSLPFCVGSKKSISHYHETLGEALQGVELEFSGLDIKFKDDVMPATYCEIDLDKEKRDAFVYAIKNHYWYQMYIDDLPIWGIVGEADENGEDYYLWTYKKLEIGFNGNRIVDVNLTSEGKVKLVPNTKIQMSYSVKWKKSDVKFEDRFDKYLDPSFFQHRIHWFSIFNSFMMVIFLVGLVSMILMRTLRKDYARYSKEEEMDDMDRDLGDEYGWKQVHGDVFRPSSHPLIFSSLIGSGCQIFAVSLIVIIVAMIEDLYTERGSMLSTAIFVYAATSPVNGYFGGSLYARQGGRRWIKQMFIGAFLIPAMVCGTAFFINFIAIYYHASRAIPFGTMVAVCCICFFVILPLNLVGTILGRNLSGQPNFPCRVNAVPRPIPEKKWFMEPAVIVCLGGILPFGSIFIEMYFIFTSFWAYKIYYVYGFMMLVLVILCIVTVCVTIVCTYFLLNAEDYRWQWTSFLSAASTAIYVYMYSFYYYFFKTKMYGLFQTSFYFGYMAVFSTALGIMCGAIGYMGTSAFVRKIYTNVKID
# UniProt P60174, whole entry, looked up: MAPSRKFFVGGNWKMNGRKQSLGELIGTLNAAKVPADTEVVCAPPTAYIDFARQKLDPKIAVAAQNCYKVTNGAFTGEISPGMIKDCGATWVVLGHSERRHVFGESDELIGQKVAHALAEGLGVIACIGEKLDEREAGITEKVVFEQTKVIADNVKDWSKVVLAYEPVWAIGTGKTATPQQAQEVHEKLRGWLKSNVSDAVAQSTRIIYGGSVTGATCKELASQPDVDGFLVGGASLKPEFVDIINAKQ
# UniProt O15321, whole entry, looked up: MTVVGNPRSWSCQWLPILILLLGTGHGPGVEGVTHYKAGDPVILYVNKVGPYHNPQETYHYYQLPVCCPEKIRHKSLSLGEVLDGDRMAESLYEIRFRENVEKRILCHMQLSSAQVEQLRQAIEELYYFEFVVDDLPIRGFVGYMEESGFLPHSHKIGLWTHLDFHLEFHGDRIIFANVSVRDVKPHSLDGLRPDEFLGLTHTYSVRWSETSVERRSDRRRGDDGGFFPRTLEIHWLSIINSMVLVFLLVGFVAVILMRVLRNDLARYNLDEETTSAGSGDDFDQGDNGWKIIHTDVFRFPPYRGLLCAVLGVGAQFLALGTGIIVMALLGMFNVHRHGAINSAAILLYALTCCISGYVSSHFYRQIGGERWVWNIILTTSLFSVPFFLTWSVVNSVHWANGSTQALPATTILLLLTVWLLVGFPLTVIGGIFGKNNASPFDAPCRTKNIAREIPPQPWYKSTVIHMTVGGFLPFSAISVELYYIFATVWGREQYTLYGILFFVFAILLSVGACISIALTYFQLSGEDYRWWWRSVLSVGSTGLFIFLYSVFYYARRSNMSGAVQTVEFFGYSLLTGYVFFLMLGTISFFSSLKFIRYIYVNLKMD
# UniProt Q96HA7: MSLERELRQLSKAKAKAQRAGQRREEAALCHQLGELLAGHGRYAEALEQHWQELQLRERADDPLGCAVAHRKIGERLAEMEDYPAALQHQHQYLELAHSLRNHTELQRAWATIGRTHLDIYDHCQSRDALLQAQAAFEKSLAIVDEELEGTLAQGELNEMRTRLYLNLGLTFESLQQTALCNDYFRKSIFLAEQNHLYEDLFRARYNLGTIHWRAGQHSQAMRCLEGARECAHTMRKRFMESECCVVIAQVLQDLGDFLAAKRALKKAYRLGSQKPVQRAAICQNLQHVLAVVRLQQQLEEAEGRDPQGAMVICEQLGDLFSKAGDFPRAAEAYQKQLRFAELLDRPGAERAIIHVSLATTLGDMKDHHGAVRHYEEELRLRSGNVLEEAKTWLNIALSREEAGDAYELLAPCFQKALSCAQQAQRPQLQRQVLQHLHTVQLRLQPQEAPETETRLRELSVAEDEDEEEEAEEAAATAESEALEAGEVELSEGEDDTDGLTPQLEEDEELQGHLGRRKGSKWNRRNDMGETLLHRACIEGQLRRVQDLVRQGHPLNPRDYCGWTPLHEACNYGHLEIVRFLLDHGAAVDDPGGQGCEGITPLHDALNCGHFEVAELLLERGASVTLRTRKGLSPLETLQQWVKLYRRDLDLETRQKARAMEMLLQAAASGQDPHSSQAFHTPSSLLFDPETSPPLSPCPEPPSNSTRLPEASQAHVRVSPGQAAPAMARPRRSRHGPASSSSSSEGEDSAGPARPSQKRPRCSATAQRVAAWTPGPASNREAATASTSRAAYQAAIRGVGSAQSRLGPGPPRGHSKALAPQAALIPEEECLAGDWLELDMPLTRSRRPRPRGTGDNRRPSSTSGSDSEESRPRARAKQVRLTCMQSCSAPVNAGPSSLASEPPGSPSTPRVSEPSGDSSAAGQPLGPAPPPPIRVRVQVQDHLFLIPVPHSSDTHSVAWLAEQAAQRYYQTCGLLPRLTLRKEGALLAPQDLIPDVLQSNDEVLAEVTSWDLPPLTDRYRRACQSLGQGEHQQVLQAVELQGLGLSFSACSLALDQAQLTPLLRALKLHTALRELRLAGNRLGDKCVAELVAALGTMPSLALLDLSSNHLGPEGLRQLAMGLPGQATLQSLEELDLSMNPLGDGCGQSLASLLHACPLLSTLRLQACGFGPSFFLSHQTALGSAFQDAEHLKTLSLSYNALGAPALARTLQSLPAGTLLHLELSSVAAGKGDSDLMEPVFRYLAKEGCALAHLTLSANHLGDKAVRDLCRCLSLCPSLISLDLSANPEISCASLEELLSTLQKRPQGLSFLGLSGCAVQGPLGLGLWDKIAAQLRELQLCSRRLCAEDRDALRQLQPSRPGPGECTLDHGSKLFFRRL
# UniProt Q12888: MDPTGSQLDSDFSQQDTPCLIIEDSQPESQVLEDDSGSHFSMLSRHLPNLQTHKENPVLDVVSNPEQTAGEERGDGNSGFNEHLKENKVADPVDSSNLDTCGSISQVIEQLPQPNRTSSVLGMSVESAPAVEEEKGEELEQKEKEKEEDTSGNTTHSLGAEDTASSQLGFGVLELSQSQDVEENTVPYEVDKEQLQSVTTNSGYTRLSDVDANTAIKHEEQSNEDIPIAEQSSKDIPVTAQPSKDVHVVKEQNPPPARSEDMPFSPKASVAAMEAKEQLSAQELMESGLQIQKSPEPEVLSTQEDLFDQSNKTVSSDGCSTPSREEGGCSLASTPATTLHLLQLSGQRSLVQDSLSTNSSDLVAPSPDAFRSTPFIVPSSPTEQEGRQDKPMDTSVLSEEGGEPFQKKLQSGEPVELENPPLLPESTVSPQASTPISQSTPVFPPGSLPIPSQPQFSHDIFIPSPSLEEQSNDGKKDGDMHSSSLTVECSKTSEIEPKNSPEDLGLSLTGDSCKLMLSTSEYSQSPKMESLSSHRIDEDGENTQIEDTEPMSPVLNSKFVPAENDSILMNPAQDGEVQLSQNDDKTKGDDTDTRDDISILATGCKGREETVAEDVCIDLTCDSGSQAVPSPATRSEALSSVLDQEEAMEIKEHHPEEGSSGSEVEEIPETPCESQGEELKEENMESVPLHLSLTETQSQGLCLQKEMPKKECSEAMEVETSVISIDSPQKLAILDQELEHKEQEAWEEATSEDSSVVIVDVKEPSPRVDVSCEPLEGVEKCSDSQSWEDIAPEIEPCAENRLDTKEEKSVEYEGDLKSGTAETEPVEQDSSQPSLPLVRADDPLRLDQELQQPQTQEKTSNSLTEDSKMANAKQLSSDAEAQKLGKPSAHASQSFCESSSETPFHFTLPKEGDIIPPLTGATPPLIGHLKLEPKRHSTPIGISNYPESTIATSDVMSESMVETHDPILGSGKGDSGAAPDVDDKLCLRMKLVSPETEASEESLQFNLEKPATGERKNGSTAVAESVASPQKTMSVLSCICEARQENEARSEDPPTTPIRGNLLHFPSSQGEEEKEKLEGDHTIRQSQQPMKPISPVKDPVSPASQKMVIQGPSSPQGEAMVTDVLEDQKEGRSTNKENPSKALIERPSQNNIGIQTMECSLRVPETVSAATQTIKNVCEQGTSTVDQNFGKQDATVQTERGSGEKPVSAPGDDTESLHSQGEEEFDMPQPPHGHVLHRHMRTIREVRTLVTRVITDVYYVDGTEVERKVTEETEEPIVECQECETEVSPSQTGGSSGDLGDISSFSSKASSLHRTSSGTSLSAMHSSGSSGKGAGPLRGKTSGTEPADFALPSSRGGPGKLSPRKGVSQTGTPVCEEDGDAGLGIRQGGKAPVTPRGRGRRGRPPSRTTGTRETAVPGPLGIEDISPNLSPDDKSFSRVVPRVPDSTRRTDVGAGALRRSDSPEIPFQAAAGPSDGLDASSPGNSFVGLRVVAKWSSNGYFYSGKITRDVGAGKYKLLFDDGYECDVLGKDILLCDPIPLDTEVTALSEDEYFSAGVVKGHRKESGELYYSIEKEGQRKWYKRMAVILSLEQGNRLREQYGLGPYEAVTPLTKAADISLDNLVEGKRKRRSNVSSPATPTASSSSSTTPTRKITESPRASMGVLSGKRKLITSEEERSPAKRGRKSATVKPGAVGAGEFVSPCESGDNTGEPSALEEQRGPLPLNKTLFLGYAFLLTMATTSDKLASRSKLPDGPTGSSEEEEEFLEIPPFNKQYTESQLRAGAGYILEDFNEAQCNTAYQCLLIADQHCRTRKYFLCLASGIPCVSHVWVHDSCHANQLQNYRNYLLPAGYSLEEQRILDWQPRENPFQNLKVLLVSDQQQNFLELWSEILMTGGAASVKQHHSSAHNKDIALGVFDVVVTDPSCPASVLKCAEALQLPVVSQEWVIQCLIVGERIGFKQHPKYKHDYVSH
# UniProt Q92973: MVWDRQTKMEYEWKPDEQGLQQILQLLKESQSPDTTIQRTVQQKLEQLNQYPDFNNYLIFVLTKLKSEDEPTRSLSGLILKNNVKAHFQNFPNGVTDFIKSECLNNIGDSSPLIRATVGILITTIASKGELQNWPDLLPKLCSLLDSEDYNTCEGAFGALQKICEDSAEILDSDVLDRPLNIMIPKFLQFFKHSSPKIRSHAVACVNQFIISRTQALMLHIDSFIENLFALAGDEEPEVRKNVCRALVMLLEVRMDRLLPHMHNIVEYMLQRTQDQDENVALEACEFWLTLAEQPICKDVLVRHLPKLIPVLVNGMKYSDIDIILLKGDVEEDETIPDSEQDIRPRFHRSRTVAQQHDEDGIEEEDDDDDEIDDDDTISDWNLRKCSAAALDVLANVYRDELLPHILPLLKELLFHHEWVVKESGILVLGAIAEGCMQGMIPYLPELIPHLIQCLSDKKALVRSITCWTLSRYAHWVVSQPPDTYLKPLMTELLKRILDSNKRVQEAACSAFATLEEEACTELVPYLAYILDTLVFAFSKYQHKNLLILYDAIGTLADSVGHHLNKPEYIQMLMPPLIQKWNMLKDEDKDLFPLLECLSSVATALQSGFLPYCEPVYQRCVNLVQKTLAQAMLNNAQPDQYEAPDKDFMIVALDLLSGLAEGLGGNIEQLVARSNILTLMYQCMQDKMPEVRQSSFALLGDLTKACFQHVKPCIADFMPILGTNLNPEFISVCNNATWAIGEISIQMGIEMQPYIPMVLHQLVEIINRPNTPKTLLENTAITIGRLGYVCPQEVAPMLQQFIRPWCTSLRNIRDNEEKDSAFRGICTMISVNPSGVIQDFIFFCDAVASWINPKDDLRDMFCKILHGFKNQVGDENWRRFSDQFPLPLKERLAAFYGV
# Compound: Cc1cc(ccc1-c1ccccc1)C(=O)N1CCCN(CC1)C(=O)CCl [compound 10]
# Assay: probe-labelled cysteine peptide fold change vs DMSO (competition) (log2 fold change); higher = less target engagement (more negative = stronger competition)
# Conditions: THP-1, incubation time: 4 h
# 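Further: competitive profiling in live THP-1 cells: cysteine peptides tagged with an iodoacetamide desthiobiotin (IA-DTB) probe, intensity after compound treatment relative to DMSO-treated cells.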
Target,probe-labelled cysteine peptide fold change (10 µM),probe-labelled cysteine peptide fold change (50 µM)
TOP3B_O95985_522_HGIGTDASIPVHINNICQR (UniProt O95985),0.214,0.0237
TMED3_Q9Y3Q3_40_QCFHEEVEQGVK (UniProt Q9Y3Q3),-0.103,0.195
TM9SF3_Q9HD45_66_YFSLPFCVGSK (UniProt Q9HD45),-0.139,-0.138
TMEM33_P57088_224_IVVEHIIMKPACPLFVR (UniProt P57088),-0.228,-0.262
TM9SF2_Q99805_56_KSDECK (UniProt Q99805),-0.278,-0.242
TMEM39A_Q9NV64_276_NEVECLK (UniProt Q9NV64),0.148,0.339
TPI1_P60174_124_DCGATWVVLGHSER (UniProt P60174),0.109,0.088
TM9SF1_O15321_67_VGPYHNPQETYHYYQLPVCCPEK (UniProt O15321),0.0905,-0.208
TLN2_Q9Y4G6_289_NCGEMSEIEAK (UniProt Q9Y4G6),-0.0796,0.0596
TONSL_Q96HA7_30_REEAALCHQLGELLAGHGR (UniProt Q96HA7),0.16,0.0923
TOP3B_O95985_58_MTSVCGHVMTLDFLGK (UniProt O95985),0.0443,0.179
TOP3B_O95985_442_IGPELFTCSGK (UniProt O95985),0.16,-0.0212
TOP3B_O95985_118_GCDYIVLWLDCDK (UniProt O95985),0.285,0.246
TMF1_P82094_301_SSLHLMQTSFQLLSASACPEYNR (UniProt P82094),-0.211,-0.691
TP53BP1_Q12888_1926_DIALGVFDVVVTDPSCPASVLK (UniProt Q12888),0.0589,-0.0545
TNPO1_Q92973_683_SNILTLMYQCMQDK (UniProt Q92973),0.0805,0.018
TNIP2_Q8NFZ5_144_AASDVLCR (UniProt Q8NFZ5),-0.0105,-0.0887
TMEM106B_Q9NUM4_253_YQYVDCGR (UniProt Q9NUM4),-0.297,0.0672
TMEM214_Q6NUQ4_222_ICIQAILQDKPK (UniProt Q6NUQ4),0.0665,0.396
TLN1_Q9Y490_956_ASAGPQPLLVQSCK (UniProt Q9Y490),-0.0509,0.0552

Target,probe-labelled cysteine peptide fold change (10 µM),probe-labelled cysteine peptide fold change (50 µM)
TONSL_Q96HA7_972_YYQTCGLLPR (UniProt Q96HA7),0.0896,0.0343
TPM4_P67936_247_EENVGLHQTLDQTLNELNCI (UniProt P67936),-0.132,0.00104
TOMM40_O96008_76_TPGAATASASGAAEDGACGCLPNPGTFEECHRK (UniProt O96008),-0.405,-0.72
TOP1_P11387_504_EEGETADTVGCCSLR (UniProt P11387),0.0427,0.192
TOP2A_P11388_733_KVLFTCFK (UniProt P11388),-0.123,-0.721
TMEM173_Q86WV6_206_LYILLPLDCGVPDNLSMADPNIR (UniProt Q86WV6),-0.113,-0.142
TMEM30A_Q9NV96_157_ECEPYRR (UniProt Q9NV96),-0.408,-0.195
TMA16_Q96EY4_162_KICANDAIPK (UniProt Q96EY4),-0.041,-0.333
TMPO_P42166_330_DIVENICGR (UniProt P42166),-0.136,-0.0688
TMEM141_Q96I45_86_CNNLWLFLETGQLPK (UniProt Q96I45),-0.0834,0.084
TNPO1_Q92973_142_LCSLLDSEDYNTCEGAFGALQK (UniProt Q92973),0.128,0.0503
TOE1_Q96GM8_371_KQVCGDSIKPEETEQEVAADETR (UniProt Q96GM8),-0.0655,-0.661
TMED8_Q6PL24_161_VSPPLMAPPCIWTFAK (UniProt Q6PL24),-0.102,-0.298
TM7SF3_Q9NS93_180_GVDPPPCDAGTDQDSR (UniProt Q9NS93),-0.0994,0.0178
TMEM87B_Q96K49_139_NENLDCNSDSQVFPSLNNK (UniProt Q96K49),-0.128,0.162
TLN1_Q9Y490_286_NCGQMSEIEAK (UniProt Q9Y490),-0.304,-0.146
TM9SF3_Q9HD45_108_DDVMPATYCEIDLDK (UniProt Q9HD45),0.424,0.752
TP53BP2_Q13625_1083_EGDCMTIIHREDEDEIEWWWAR (UniProt Q13625),-0.135,-0.0598
TP53BP1_Q12888_1950_CAEALQLPVVSQEWVIQCLIVGER (UniProt Q12888),-0.00348,-0.462

# Shown with tabs: part of the list above
Target	probe-labelled cysteine peptide fold change (10 µM)	probe-labelled cysteine peptide fold change (50 µM)
TNPO1_Q92973_142_LCSLLDSEDYNTCEGAFGALQK (UniProt Q92973)	0.128	0.0503
TOE1_Q96GM8_371_KQVCGDSIKPEETEQEVAADETR (UniProt Q96GM8)	-0.0655	-0.661

# From the supplement of paper PMC12067093, “Discovery and optimisation of a covalent ligand for TRIM25 and its application to targeted protein ubiquitination” (Chemical Science, 2025)
